Values from PubChem BioAssay AID1159599 (NIAID, 2016).
The whole screen tested 756 reagents; below is a part drawn at random. Over the whole deposit, 130 (17%) are marked active. 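Calls are two-sided: actives include siRNAs that raised the Tnf reporter as well as ones that lowered it.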 Unmarked entries are inactive. Reagents against one gene are numbered here. Reagent sequences are not shown. Not stated in the record: the amount of reagent.

- Assay: 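Effect of knocking down TLR signalling components on Tnf reporter after LPS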
- Cells: mouse RAW264.7 G9 macrophage reporter clone cells
- Knock-down reagent: single siRNA against mouse genes
- Time to read-out: 48 to 72 h after siRNA transfection, LPS for the last 16 h
- Conditions: LPS (Salmonella minnesota R595), 16 h before fixation; dose not stated
- Measurement: 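Nuclear mCherry from a Tnf promoter reporter imaged after LPS, background removed, robust z-score from per-plate median and MAD, averaged over replicates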
- Scale: Tnf reporter z-score: higher = stronger Tnf promoter reporter signal after LPS
- Rule for the call: 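Called active if the mean z-score over replicates passes 1.5 in either direction, up or down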
- Meaning of the calls: active = strong change either way; inactive = little change

gene	reagent no.	Tnf reporter z-score, replicate mean
Rela (GeneID 19697)	1	-0.301
Rela (GeneID 19697)	2	0.564
Rela (GeneID 19697)	3	-1.12
Rela (GeneID 19697)	4	-1.81 (active)
Rela (GeneID 19697)	5	-0.224
Rela (GeneID 19697)	6	-0.814
Ly96 (GeneID 17087)	1	0.0627
Ly96 (GeneID 17087)	2	-2.11 (active)
Ly96 (GeneID 17087)	3	-0.861
Ly96 (GeneID 17087)	4	-0.65
Ly96 (GeneID 17087)	5	-1.07
Ly96 (GeneID 17087)	6	-0.823
Pik3r2 (GeneID 18709)	1	-0.0796
Pik3r2 (GeneID 18709)	2	-0.501
Pik3r2 (GeneID 18709)	3	-0.5
Pik3r2 (GeneID 18709)	4	0.994
Pik3r2 (GeneID 18709)	5	0.4
Pik3r2 (GeneID 18709)	6	-0.579
Irak4 (GeneID 266632)	1	0.692
Irak4 (GeneID 266632)	2	-1.61 (active)
Irak4 (GeneID 266632)	3	-1.44
Irak4 (GeneID 266632)	4	-1.39
Irak4 (GeneID 266632)	5	-1.33
Irak4 (GeneID 266632)	6	-1.09
Dusp2 (GeneID 13537)	1	0.668
Dusp2 (GeneID 13537)	2	-2 (active)
Dusp2 (GeneID 13537)	3	2.29 (active)
Dusp2 (GeneID 13537)	4	0.734
Dusp2 (GeneID 13537)	5	-0.374
Dusp2 (GeneID 13537)	6	-0.688

Reprinted from the entries so far (2 entries):
gene	reagent no.	Tnf reporter z-score, replicate mean
Pik3r2 (GeneID 18709)	3	-0.5
Pik3r2 (GeneID 18709)	4	0.994
